For some assays here: A weaker result is weaker than the reference pair of the same experiment. For some assays here: Construct, isoform or probe ends are uncertain for at least one entry.
What was measured:
[1] = test system: CBD (Human); test: competition with a labelled probe; conditions: DNA (20 uM) sequesters CBD from His-NMVITAIL in pull-down; recombinant protein; residues 1060-1253; protein details: His-tag (pET28)
[2] = test system: CBD deltaSiteA K1093A,K1095A,K1097N,K1098N (Human); test: fluorescence anisotropy; conditions: FAM-DNA 50 nM; assay buffer; recombinant protein; protein details: His-tag (pET28); label: 3' FAM on strand A
[3] = test system: CCBD deltaSiteC T1205A,R1206A,K1207A,R1208A (Human); test: fluorescence anisotropy; conditions: FAM-DNA 50 nM; assay buffer; recombinant protein; protein details: His-tag (pET28); label: 3' FAM on strand A
[4] = test system: NCBD (Human); test: fluorescence anisotropy; conditions: FAM-DNA 50 nM; assay buffer; recombinant protein; residues 1060-1120; protein details: His-tag (pET28); label: 3' FAM on strand A
[5] = test system: NMVITAIL (Human); test: fluorescence anisotropy; conditions: FAM-DNA 50 nM; assay buffer; recombinant protein; residues 814-1060; protein details: His-tag (pET151), TEV-cleaved; label: 3' FAM on strand A

Chains of the proteins cited; added tags and fusions are not shown. A line that says so, or that is headed by a name, gives the form on record, which may keep a tag or linker.
CCBD deltaSiteC T1205A,R1206A,K1207A,R1208A (Human), one chain, as listed by the source T1205A R1206A K1207A R1208A: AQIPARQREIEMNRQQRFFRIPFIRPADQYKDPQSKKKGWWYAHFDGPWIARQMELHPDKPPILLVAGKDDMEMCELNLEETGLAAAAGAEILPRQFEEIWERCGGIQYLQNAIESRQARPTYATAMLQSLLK
CBD (Human), one chain, as listed by the source: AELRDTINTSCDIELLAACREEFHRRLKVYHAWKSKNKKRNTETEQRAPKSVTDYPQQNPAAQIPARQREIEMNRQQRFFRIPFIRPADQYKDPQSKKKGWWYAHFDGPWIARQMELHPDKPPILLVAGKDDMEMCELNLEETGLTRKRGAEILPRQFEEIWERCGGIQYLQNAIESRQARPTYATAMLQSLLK
NCBD (Human), one chain, as listed by the source: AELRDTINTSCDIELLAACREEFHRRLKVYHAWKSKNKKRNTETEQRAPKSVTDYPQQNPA
CBD deltaSiteA K1093A,K1095A,K1097N,K1098N (Human), one chain, as listed by the source K1093A K1095A K1097N K1098N: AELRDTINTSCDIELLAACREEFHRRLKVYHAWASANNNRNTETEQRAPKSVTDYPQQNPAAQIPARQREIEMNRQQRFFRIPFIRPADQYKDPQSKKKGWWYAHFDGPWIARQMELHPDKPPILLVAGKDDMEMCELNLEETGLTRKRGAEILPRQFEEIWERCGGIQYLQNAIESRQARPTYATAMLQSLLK

Row | Sequence | binding result [1] | binding result [2] | binding result [3] | binding result [4] | binding result [5]
1 | TTAGTTGTTCGTAGTGCTCGTCTGGCTCTGGATTACCCGC (double strand) [40 bp DNA (unlabelled competitor)] | binds |  |  |  | 
2 | TTAGTTGTTCGTAGTGCTCGTCTGGCTCTGGATTACCCGC (double strand) [ds40] |  | binds more weakly | binds more weakly | binds more weakly | binds more weakly

Source: publication PMC5707354
